Measurements: publication PMC12120770
Results are given in words; binding and its absence hold for the method and conditions named. Some results given as binding are weak or reduced against the parent protein; the word gives no strength.

Target: T1, SoBfr1, heme-free subunit of the Shewanella oneidensis hetero-bacterioferritin SoBfr12 (Shewanella oneidensis) (UniProt Q8EHV0)
T1 sequence: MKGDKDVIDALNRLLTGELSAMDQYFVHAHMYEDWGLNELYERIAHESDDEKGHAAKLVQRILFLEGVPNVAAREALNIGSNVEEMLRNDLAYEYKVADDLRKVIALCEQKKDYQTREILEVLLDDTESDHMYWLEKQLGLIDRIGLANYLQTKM
Test: cryo-EM structure; single-particle cryo-EM of purified SoBfr12 (1.7 mg mL^-1), subunits co-expressed in E. coli; refined with C1 symmetry, 2.62 Å; both purified

- binding: binds
B1: SoBfr2, heme-binding subunit of the Shewanella oneidensis hetero-bacterioferritin SoBfr12 (protein, UniProt Q8EHV1 1-157)
chain: MKGHPKVVGQLNRVLTCELTAINQYFLHARMFKHWGLEKLNHVEYKKSIEDMKHADKLIERVLFLEGLPNLQQLEKLRIGEHAQEMLDCDLAMVQEQLTLLRDAITLCEAEQDYVSRDLLEDILEDEEEHLDWLESQRELIGLTGIQNYLQSQISES
